Experimental data from PMC7866668.
These are yes or no findings as the source states them, for the method shown. In cells and extracts the contact can be indirect. Some entries that bind do so weakly or less than the wild type. Blank lines part the entries; values can stand above or below the substance they belong to.

Sequences of proteins named here, by UniProt entry; tags and fusion partners are left off.
UniProt P01106: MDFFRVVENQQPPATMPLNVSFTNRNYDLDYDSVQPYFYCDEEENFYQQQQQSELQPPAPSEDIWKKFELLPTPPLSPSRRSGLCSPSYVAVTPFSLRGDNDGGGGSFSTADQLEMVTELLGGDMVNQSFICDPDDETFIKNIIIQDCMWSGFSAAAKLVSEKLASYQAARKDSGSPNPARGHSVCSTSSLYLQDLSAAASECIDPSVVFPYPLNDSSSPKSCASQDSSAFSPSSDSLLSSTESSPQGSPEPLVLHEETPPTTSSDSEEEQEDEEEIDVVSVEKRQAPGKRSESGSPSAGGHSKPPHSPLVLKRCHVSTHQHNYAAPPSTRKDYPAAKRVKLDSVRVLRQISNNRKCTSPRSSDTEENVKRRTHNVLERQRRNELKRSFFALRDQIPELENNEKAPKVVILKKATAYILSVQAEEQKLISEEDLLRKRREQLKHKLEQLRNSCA
UniProt Q9Y5T5: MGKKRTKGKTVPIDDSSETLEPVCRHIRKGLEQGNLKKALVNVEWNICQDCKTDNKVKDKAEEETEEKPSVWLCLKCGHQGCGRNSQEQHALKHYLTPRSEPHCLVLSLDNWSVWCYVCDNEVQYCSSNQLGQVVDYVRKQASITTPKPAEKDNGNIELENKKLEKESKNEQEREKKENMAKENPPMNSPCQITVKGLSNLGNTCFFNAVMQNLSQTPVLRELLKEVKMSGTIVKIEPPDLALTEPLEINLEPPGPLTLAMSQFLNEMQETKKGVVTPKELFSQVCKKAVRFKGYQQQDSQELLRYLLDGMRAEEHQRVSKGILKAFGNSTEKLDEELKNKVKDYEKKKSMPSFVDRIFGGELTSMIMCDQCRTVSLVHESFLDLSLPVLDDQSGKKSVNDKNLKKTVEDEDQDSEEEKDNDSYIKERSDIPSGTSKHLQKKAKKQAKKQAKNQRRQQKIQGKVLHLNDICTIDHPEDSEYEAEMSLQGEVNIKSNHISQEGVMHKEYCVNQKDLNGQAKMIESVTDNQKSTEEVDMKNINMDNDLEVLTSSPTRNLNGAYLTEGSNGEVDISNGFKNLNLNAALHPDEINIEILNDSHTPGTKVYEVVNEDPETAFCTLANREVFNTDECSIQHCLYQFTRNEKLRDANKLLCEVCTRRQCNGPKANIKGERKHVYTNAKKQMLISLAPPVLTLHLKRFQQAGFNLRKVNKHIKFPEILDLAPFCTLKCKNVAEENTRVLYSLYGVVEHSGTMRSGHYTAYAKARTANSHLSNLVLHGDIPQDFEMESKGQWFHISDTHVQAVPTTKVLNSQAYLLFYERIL

What was measured:
[1] = target: c-Myc (endogenous, PC3 cells) (human (endogenous in PC3)) (UniProt P01106); assay: co-IP; endogenous c-Myc and USP16 in PC3 cells; NP-40 lysis buffer; protein A/G beads with the indicated antibodies, 4 °C overnight; Western blot
[2] = target: Flag-c-Myc (exogenous, in PC3 cells) (UniProt P01106); assay: co-IP; PC3 cells with exogenous Flag-c-Myc or Flag-USP16; immunoprecipitation with an anti-Flag antibody; endogenous partner analysed by Western blot
Flag-tagged c-Myc = Flag-tagged c-Myc (UniProt P01106); assay: co-IP; HEK293T cells transfected with Flag-tagged and V5-tagged plasmids alone or in combination; NP-40 lysis buffer; immunoprecipitation with an anti-Flag antibody on protein A/G beads, 4 °C overnight; immunoblotting
[3] = target: Flag-tagged USP16 (ubiquitin-specific protease 16) (UniProt Q9Y5T5); assay: as above
[4] = target: Flag-USP16 (exogenous, in PC3 cells) (UniProt Q9Y5T5); assay: co-IP; PC3 cells with exogenous Flag-c-Myc or Flag-USP16; immunoprecipitation with an anti-Flag antibody; endogenous partner analysed by Western blot

binding [1]: binds | binding [2]: binds
Substance: USP16 (endogenous, PC3 cells) (from UniProt Q9Y5T5 1-823) (enzyme)

binding (Flag-tagged c-Myc): binds
Substance: V5-tagged USP16 (from UniProt Q9Y5T5 1-823) (enzyme)

binding [3]: binds
Substance: V5-tagged c-Myc (from UniProt P01106 1-454)

binding [4]: binds
Substance: c-Myc (endogenous, PC3 cells) (from UniProt P01106 1-454)
